Publication PMC11703842
These are yes or no findings as the source states them, for the method shown. Binding seen in cells or lysates may run through a third protein. Some binding calls cover weakened binding; strength is not graded here. Tags and fused reporters may be left off the sequences shown.

Amino acid sequences for entries named in this document (tags omitted).
UniProt Q99942: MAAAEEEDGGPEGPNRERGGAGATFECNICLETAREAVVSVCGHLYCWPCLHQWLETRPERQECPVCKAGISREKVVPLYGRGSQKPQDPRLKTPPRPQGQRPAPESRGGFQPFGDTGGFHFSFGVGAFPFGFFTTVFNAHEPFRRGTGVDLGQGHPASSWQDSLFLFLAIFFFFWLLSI

T1: His-PTGDR2 (PGD2 receptor 2) (UniProt Q9Y5Y4)
T1 sequence: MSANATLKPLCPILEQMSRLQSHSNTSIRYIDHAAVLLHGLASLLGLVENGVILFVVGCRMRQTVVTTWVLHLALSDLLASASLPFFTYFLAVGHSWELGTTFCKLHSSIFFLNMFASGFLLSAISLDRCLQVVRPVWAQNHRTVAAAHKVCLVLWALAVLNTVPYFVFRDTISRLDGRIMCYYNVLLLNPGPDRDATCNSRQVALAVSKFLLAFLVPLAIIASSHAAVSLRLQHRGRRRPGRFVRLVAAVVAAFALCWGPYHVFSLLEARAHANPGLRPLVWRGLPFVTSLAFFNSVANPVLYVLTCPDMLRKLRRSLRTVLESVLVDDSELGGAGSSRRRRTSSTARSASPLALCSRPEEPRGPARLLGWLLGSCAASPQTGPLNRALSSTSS


Key:
[1] = target: T1, His-PTGDR2 (PGD2 receptor 2); experiment: co-IP; 293T cells with His-PTGDR2 and Flag-RNF5; immunoprecipitation and reverse immunoprecipitation, immunoblot
[2] = target: Flag-RNF5 (ring finger protein 5, E3 ubiquitin ligase) (UniProt Q99942); experiment: as above

binding [1]	binding [2]	Molecule
binds	–	Flag-RNF5 (ring finger protein 5, E3 ubiquitin ligase) (from UniProt Q99942 1-180) (enzyme)
–	binds	His-PTGDR2 (PGD2 receptor 2) (receptor, UniProt Q9Y5Y4 1-395) MSANATLKPLCPILEQMSRLQSHSNTSIRYIDHAAVLLHGLASLLGLVENGVILFVVGCRMRQTVVTTWVLHLALSDLLASASLPFFTYFLAVGHSWELGTTFCKLHSSIFFLNMFASGFLLSAISLDRCLQVVRPVWAQNHRTVAAAHKVCLVLWALAVLNTVPYFVFRDTISRLDGRIMCYYNVLLLNPGPDRDATCNSRQVALAVSKFLLAFLVPLAIIASSHAAVSLRLQHRGRRRPGRFVRLVAAVVAAFALCWGPYHVFSLLEARAHANPGLRPLVWRGLPFVTSLAFFNSVANPVLYVLTCPDMLRKLRRSLRTVLESVLVDDSELGGAGSSRRRRTSSTARSASPLALCSRPEEPRGPARLLGWLLGSCAASPQTGPLNRALSSTSS
